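Uptake of anthrax lethal toxin into cultured cells, read by FRET (460/530 nm ratio) and reported from the 460 nm channel; the cell line is not named here.
Each compound was tested as a concentration series from about 0.0005 to 40 µM.
The number is the fitted AC50 of the 460 nm signal alone; lower values mean a more potent effect. A falling signal goes with compounds filed as inhibitors or cytotoxic, a rising one with activators or fluorescent compounds (inferred from the filed classes).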

Values are in µM.
Common to all entries: measured here: 460 nm channel.
Part of the compounds only, not a random draw; the main read-out is not listed here.
Potencies fitted to partial, single-point or poorly fitting curves are rough.
The first word of each remark tells which way the curve ran; it can be opposite to the aim of the assay.

{"smiles": "O=C(O)[C@@H](Br)[C@@H](Br)c1ccccc1[N+](=O)[O-]", "AC50 (µM)": "1", "remark": "falling, full curve"}
{"smiles": "O=C(CSc1nc2ccccc2o1)NCCOc1ccccc1", "AC50 (µM)": "6.31", "remark": "falling, partial curve, poor fit"}
{"smiles": "COc1ccc(OC)c(C2CC(=O)c3c([nH]c(C(=O)OC(C)C)c3C)C2)c1", "stereo": "centres unmarked", "AC50 (µM)": "1.259", "remark": "falling, full curve"}
{"smiles": "COC(=O)c1cccc(NC(=O)c2cc3sccc3n2C)c1", "AC50 (µM)": "3.981", "remark": "falling, partial curve"}
{"smiles": "COc1cccc(C2/C(=C(\\O)c3c(C)nc4c(C)cccn34)C(=O)C(=O)N2CCCN(C)C)c1", "stereo": "centres unmarked", "AC50 (µM)": "0.05012", "remark": "rising, full curve, poor fit"}
{"smiles": "COC(=O)CN(c1ccc(F)cc1)S(=O)(=O)c1ccc2c(c1)OCCO2", "AC50 (µM)": "12.59", "remark": "rising, single point"}
{"smiles": "CN(C)c1ccc(-c2nc(NCCN3CCOCC3)c3ccccc3n2)cc1", "AC50 (µM)": "31.62", "remark": "falling, single point"}
{"smiles": "Fc1ccc2[nH]c3c(N4CCN(c5ccccc5)CC4)ncnc3c2c1", "AC50 (µM)": "5.012", "remark": "falling, full curve"}
{"smiles": "COc1ccc(-n2c(=O)c(-c3cccc(C#N)c3)nc3cnc(N4CCNCC4)nc32)cc1", "AC50 (µM)": "10", "remark": "rising, partial curve"}
{"smiles": "CCN=c1scc(-c2ccc3c(c2)NC(=O)CO3)n1N=C1CCCC1", "AC50 (µM)": "15.85", "remark": "rising, single point"}
{"smiles": "CCCNC(=O)c1c(N)n(-c2cccc(OC)c2)c2nc3ccccc3nc12", "AC50 (µM)": "10", "remark": "rising, partial curve"}
{"smiles": "CCNc1ncc2nc(-c3ccccc3)c(=O)n(-c3ccc(OC)cc3)c2n1", "AC50 (µM)": "10", "remark": "rising, partial curve"}
{"smiles": "CCn1c(=O)c2c(cnn2C)c2ccccc21", "AC50 (µM)": "0.03981", "remark": "falling, full curve"}
{"smiles": "CCOc1ccc(C2C(C#N)=C(N)N3C(=C2C#N)Sc2ccccc23)cc1", "stereo": "centres unmarked", "AC50 (µM)": "5.012", "remark": "rising, full curve"}
{"smiles": "O=c1[nH]c2ccc(Cl)cc2c(-c2ccccc2)c1CN1CCOCC1", "AC50 (µM)": "0.02512", "remark": "falling, full curve, poor fit"}
{"smiles": "COc1ccc2nc(NCCCNC(=O)c3cc(OC)c(OC)c(OC)c3)c(C#N)cc2c1", "AC50 (µM)": "15.85", "remark": "rising, partial curve"}
{"smiles": "O=C(Nc1ccc2oc(Cc3ccc(Cl)cc3)nc2c1)c1cccnc1", "AC50 (µM)": "12.59", "remark": "falling, partial curve"}
{"smiles": "Cc1ccccc1Nc1nc(N)nc(COC(=O)C(NC(=O)c2ccco2)C(C)C)n1", "stereo": "centres unmarked", "AC50 (µM)": "0.003162", "remark": "rising, full curve, poor fit"}
{"smiles": "Cc1cccc(-c2c3c(=O)n(C)c(=O)n(C)c3cn2C(C)C)c1", "AC50 (µM)": "0.631", "remark": "rising, full curve, poor fit"}
{"smiles": "COc1ccc(C(=O)N2CCC3(CCCN(c4ccccc4)C3)CC2)cc1", "AC50 (µM)": "0.3162", "remark": "rising, full curve, poor fit"}
{"smiles": "COc1ccccc1-n1c(C)nnc1SCC(N)=O", "AC50 (µM)": "15.85", "remark": "rising, partial curve"}
{"smiles": "CCOC(=O)CC(=O)CSc1nc2ccccc2c(=O)n1-c1ccc(C(=O)N2CCOCC2)cc1", "AC50 (µM)": "0.3981", "remark": "rising, partial curve"}
{"smiles": "CCNc1ncc2nc(-c3ccc(OC)cc3)c(=O)n(C[C@H]3CCCO3)c2n1", "AC50 (µM)": "5.012", "remark": "rising, full curve, poor fit"}
{"smiles": "CCCC=O", "AC50 (µM)": "1.259", "remark": "falling, full curve, poor fit"}
{"smiles": "Cc1cccc([C@H](C)c2cnc[nH]2)c1C", "AC50 (µM)": "12.59", "remark": "falling, single point"}
{"smiles": "CSc1ccccc1NC(=O)C1CC(c2ccccc2O)=NO1", "stereo": "centres unmarked", "AC50 (µM)": "0.3981", "remark": "falling, partial curve"}
{"smiles": "COC(=O)[C@@]1(Cc2ccc(F)cc2)[C@H]2c3cc(C(=O)N4CCCC4)n(Cc4ccc(S(C)(=O)=O)cc4)c3C[C@H]2CN1C(=O)c1ccccc1", "AC50 (µM)": "5.012", "remark": "rising, full curve"}
{"smiles": "OC1CC2CC[C@H](C1)N2CCCN1c2ccccc2Sc2ccc(Cl)cc21", "stereo": "some centres unmarked", "AC50 (µM)": "5.012", "remark": "falling, single point"}
{"smiles": "COCCCN1C(=O)C(=O)/C(=C(/O)c2ccc3c(c2)OCCO3)C1c1ccc(C(=O)OC)cc1", "stereo": "centres unmarked", "AC50 (µM)": "0.02512", "remark": "rising, full curve, poor fit"}
{"smiles": "Cc1c(C(=O)OCc2ccccc2)[nH]c2c1C(=O)CC(c1ccco1)C2", "stereo": "centres unmarked", "AC50 (µM)": "0.1995", "remark": "falling, full curve"}
{"smiles": "O=C(CCCN1CC=C(n2c(=O)[nH]c3ccccc32)CC1)c1ccc(F)cc1", "AC50 (µM)": "2.512", "remark": "rising, single point"}
{"smiles": "COc1ncc2nc(CCc3ccccc3)c(=O)n(Cc3ccc(F)cc3)c2n1", "AC50 (µM)": "10", "remark": "rising, partial curve"}
{"smiles": "CCOC(=O)N1CCC(NC(=O)c2cnn3c2NC(c2ccco2)CC3C(F)(F)F)CC1", "stereo": "centres unmarked", "AC50 (µM)": "10", "remark": "rising, single point"}
{"smiles": "COc1cccc2sc(Nc3nc(C)c(C(C)=O)s3)nc12", "AC50 (µM)": "12.59", "remark": "rising, single point"}
{"smiles": "CN(C)CCCN1c2ccccc2Sc2ccccc21", "AC50 (µM)": "12.59", "remark": "falling, partial curve"}
{"smiles": "O=C(O)CN1C(=O)CN=C(c2ccccn2)c2cc(Cl)ccc21", "AC50 (µM)": "1", "remark": "falling, single point"}
{"smiles": "CCOC(=O)c1oc2ccc(S(=O)(=O)Nc3ccc4c(c3)n(C)c(=O)n4C)cc2c1C", "AC50 (µM)": "12.59", "remark": "rising, partial curve"}
{"smiles": "CCOC(=O)c1c(C)nc2c3ccccc3ccn12", "AC50 (µM)": "0.02512", "remark": "falling, full curve"}
{"smiles": "Clc1cccc(Cl)c1COc1ccncc1", "AC50 (µM)": "0.1259", "remark": "rising, full curve, poor fit"}
{"smiles": "O=[N+]([O-])c1ccc2cn[nH]c2c1", "AC50 (µM)": "31.62", "remark": "falling, single point"}
{"smiles": "COc1ccc2c(c1)N(C[C@@H](C)CN(C)C)c1ccccc1S2", "AC50 (µM)": "10", "remark": "falling, single point"}

Once more, the final 3:

{"smiles": "Clc1cccc(Cl)c1COc1ccncc1", "AC50 (µM)": "0.1259", "remark": "rising, full curve, poor fit"}
{"smiles": "O=[N+]([O-])c1ccc2cn[nH]c2c1", "AC50 (µM)": "31.62", "remark": "falling, single point"}
{"smiles": "COc1ccc2c(c1)N(C[C@@H](C)CN(C)C)c1ccccc1S2", "AC50 (µM)": "10", "remark": "falling, single point"}

The results are deposited in PubChem (AID912; NCATS, 2007).